Consider 6 molecules from PMC5738411.

Sequences of proteins named here, by UniProt entry; tags and fusion partners are left off. A change or cut given only in a name is not applied to a line headed by its entry. A line that says so, or that is headed by a name, gives the form on record, which may keep a tag or linker. Residues count along the entry.
UniProt Q9P246, residues 453-729: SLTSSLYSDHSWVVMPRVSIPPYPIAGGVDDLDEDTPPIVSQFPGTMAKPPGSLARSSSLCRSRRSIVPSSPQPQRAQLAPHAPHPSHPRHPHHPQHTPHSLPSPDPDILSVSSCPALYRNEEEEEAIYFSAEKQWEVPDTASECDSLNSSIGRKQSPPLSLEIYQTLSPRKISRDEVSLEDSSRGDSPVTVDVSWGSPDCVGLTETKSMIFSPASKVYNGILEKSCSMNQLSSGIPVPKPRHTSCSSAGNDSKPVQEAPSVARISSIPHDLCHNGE
UniProt P63284: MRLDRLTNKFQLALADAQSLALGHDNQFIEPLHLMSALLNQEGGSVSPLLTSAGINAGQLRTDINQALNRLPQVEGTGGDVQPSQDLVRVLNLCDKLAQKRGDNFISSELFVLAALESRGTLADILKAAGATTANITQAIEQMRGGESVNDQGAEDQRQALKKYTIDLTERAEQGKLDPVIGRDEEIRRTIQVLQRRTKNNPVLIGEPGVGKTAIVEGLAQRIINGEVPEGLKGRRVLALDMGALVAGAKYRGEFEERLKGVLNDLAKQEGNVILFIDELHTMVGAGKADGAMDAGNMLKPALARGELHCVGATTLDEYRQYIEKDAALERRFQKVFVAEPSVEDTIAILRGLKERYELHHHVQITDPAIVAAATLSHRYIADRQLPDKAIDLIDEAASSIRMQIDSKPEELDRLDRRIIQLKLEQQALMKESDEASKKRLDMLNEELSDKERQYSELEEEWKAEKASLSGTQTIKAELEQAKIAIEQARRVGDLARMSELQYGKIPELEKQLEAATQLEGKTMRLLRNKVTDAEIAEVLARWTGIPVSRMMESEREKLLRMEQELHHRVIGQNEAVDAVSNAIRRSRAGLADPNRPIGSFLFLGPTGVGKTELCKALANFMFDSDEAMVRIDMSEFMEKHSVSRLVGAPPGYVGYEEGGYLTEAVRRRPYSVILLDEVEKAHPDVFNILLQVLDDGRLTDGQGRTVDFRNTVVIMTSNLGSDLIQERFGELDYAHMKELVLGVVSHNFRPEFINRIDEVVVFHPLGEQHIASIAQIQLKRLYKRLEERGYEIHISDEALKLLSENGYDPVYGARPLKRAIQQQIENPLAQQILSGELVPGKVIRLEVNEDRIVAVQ
Sarcoplasmic/endoplasmic reticulum Ca2+-ATPase 1a (SERCA1a) (P04191-2, form named): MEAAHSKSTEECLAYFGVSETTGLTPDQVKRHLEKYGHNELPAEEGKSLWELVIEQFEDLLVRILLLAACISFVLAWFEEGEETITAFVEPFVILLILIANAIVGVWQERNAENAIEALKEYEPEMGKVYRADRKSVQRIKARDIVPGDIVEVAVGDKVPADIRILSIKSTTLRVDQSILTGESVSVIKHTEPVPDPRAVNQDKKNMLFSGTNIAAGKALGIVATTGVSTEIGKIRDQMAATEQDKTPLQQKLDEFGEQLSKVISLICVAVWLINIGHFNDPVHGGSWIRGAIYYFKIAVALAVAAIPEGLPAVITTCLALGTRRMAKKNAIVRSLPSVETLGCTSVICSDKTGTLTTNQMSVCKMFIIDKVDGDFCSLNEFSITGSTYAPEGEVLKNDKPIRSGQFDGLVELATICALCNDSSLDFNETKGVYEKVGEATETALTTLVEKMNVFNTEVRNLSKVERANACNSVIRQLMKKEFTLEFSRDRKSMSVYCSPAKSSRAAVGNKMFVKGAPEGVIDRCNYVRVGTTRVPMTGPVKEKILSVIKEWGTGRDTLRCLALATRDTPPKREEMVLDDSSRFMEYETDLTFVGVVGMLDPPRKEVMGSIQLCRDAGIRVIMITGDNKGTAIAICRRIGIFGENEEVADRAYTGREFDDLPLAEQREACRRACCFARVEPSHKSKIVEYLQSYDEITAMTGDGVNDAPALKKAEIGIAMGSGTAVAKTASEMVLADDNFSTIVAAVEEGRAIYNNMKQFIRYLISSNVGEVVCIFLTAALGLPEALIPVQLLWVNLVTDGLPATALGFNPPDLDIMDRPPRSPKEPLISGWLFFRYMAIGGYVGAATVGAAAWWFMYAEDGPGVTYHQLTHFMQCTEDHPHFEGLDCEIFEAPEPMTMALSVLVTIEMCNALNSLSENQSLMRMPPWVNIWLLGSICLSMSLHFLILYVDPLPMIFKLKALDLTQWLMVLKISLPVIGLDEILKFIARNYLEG

These are yes or no findings as the source states them, for the method shown. Binding seen in cells or lysates may run through a third protein. These calls come from enrichment with a bait or labelling near it, and not all partners need be listed. For part of these data: A no says only that the protein was not detected with the bait.

B1: Peptidyl-prolyl cis-trans isomerase D (enzyme, UniProt P0ADY1 1-623)
chain: MMDSLRTAANSLVLKIIFGIIIVSFILTGVSGYLIGGGNNYAAKVNDQEISRGQFENAFNSERNRMQQQLGDQYSELAANEGYMKTLRQQVLNRLIDEALLDQYARELKLGISDEQVKQAIFATPAFQVDGKFDNSRYNGILNQMGMTADQYAQALRNQLTTQQLINGVAGTDFMLKGETDELAALVAQQRVVREATIDVNALAAKQPVTEQEIASYYEQNKNNFMTPEQFRVSYIKLDAATMQQPVSDADIQSYYDQHQDQFTQPQRTRYSIIQTKTEDEAKAVLDELNKGGDFAALAKEKSADIISARNGGDMGWLEDATIPDELKNAGLKEKGQLSGVIKSSVGFLIVRLDDIQPAKVKSLDEVRDDIAAKVKHEKALDAYYALQQKVSDAASNDTESLAGAEQAAGVKATQTGWFSKDNLPEELNFKPVADAIFNGGLVGENGAPGINSDIITVDGDRAFVLRISEHKPEAVKPLADVQEQVKALVQHNKAEQQAKVDAEKLLVDLKAGKGAEAMQAAGLKFGEPKTLSRSGRDPISQAAFALPLPAKDKPSYGMATDMQGNVVLLALDEVKQGSMPEDQKKAMVQGITQNNAQIVFEALMSNLRKEAKIKIGDALEQQ
B2: Fructose-bisphosphate aldolase class 2 (enzyme, UniProt P0AB71 1-359)
chain: MSKIFDFVKPGVITGDDVQKVFQVAKENNFALPAVNCVGTDSINAVLETAAKVKAPVIVQFSNGGASFIAGKGVKSDVPQGAAILGAISGAHHVHQMAEHYGVPVILHTDHCAKKLLPWIDGLLDAGEKHFAATGKPLFSSHMIDLSEESLQENIEICSKYLERMSKIGMTLEIELGCTGGEEDGVDNSHMDASALYTQPEDVDYAYTELSKISPRFTIAASFGNVHGVYKPGNVVLTPTILRDSQEYVSKKHNLPHNSLNFVFHGGSGSTAQEIKDSVSYGVVKMNIDTDTQWATWEGVLNYYKANEAYLQGQLGNPKGEDQPNKKYYDPRVWLRAGQTSMIARLEKAFQELNAIDVL
B3: 3-oxoacyl-[acyl-carrier-protein] synthase 1 (enzyme, UniProt P0A953 1-406)
chain: MKRAVITGLGIVSSIGNNQQEVLASLREGRSGITFSQELKDSGMRSHVWGNVKLDTTGLIDRKVVRFMSDASIYAFLSMEQAIADAGLSPEAYQNNPRVGLIAGSGGGSPRFQVFGADAMRGPRGLKAVGPYVVTKAMASGVSACLATPFKIHGVNYSISSACATSAHCIGNAVEQIQLGKQDIVFAGGGEELCWEMACEFDAMGALSTKYNDTPEKASRTYDAHRDGFVIAGGGGMVVVEELEHALARGAHIYAEIVGYGATSDGADMVAPSGEGAVRCMKMAMHGVDTPIDYLNSHGTSTPVGDVKELAAIREVFGDKSPAISATKAMTGHSLGAAGVQEAIYSLLMLEHGFIAPSINIEELDEQAAGLNIVTETTDRELTTVMSNSFGFGGTNATLVMRKLKD
B4: Phenylalanine-tRNA ligase beta subunit (enzyme, UniProt P07395 1-795)
chain: MKFSELWLREWVNPAIDSDALANQITMAGLEVDGVEPVAGSFHGVVVGEVVECAQHPNADKLRVTKVNVGGDRLLDIVCGAPNCRQGLRVAVATIGAVLPGDFKIKAAKLRGEPSEGMLCSFSELGISDDHSGIIELPADAPIGTDIREYLKLDDNTIEISVTPNRADCLGIIGVARDVAVLNQLPLVQPEIVPVGATIDDTLPITVEAPEACPRYLGRVVKGINVKAPTPLWMKEKLRRCGIRSIDAVVDVTNYVLLELGQPMHAFDKDRIEGGIVVRMAKEGETLVLLDGTEAKLNADTLVIADHNKALAMGGIFGGEHSGVNDETQNVLLECAFFSPLSITGRARRHGLHTDASHRYERGVDPALQHKAMERATRLLIDICGGEAGPVIDITNEATLPKRATITLRRSKLDRLIGHHIADEQVTDILRRLGCEVTEGKDEWQAVAPSWRFDMEIEEDLVEEVARVYGYNNIPDEPVQASLIMGTHREADLSLKRVKTLLNDKGYQEVITYSFVDPKVQQMIHPGVEALLLPSPISVEMSAMRLSLWTGLLATVVYNQNRQQNRVRIFESGLRFVPDTQAPLGIRQDLMLAGVICGNRYEEHWNLAKETVDFYDLKGDLESVLDLTGKLNEVEFRAEANPALHPGQSAAIYLKGERIGFVGVVHPELERKLDLNGRTLVFELEWNKLADRVVPQAREISRFPANRRDIAVVVAENVPAADILSECKKVGVNQVVGVNLFDVYRGKGVAEGYKSLAISLILQDTSRTLEEEEIAATVAKCVEALKERFQASLRD

The first experiment deals with GST-fused STIM2-UI protein (amino acids 453 to 729 of STIM2) (human) (UniProt Q9P246). As to the kind of experiment: affinity purification with mass spectrometry; same binding assay as a1; bands on the GST-fused STIM2-UI beads that came from the E. coli host, identified by qTOF-MS.
With “Chaperone protein ClpB (from UniProt P63284 1-857)”, the binding result is listed as “no binding”.
Still for that read-out and setting: the value for B1 was “no binding”.
With B2, the binding result is “no binding”.
On to B3, for which the binding result was “no binding”.
As for B4, the binding entry is “no binding”.

The target is the same in another experiment. As to the kind of experiment: affinity purification with mass spectrometry; GST-fused STIM2-UI immobilised on GST beads, incubated with 150 μg of solubilized rabbit triad sample for 8 h at 4 °C; bound proteins on 10% SDS-PAGE, Coomassie-stained bands digested in gel and identified by qTOF-MS; only the target purified.
Consider “Sarcoplasmic/endoplasmic reticulum Ca2+-ATPase 1a (SERCA1a) (from UniProt P04191-2 1-994)”, for which the binding entry is listed as “binds”.
